Results published in paper PMC7285181 (Pharmaceutics, 2020).
Counter-ions that a name gives are not always drawn.

Tested on: histamine level in plasma
Test: Plasma histamine level after compound 48/80 (o-phthalaldehyde spectrofluorometric procedure)
Assay type: in vivo, mice
Protocol: Five groups each of 8 male albino mice were used in this experiment. Mice were housed 4 per cage and were maintained at room temperature (25 ± 0.5 °C). All experiments were performed in compliance with the guidelines approved by the ethics committee of Faculty of Pharmacy, The British University in Egypt (approval number Ex-1904). The mice in the first group were administered phosphate buffer saline orally (negative control group), while the second group were administered phosphate buffer saline 1 hour prior to an intraperitoneal injection of 8 mg/kg of the mast cell degranulator compound 48/80 which induces systemic anaphylaxis-like reactions in mice (positive control group). […] The mortality was monitored for 1 h after induction of anaphylactic shock. After the mortality test, blood was obtained from the heart of each mouse by cardiac puncture.
The obtained blood samples were centrifuged at 400 g for 10 min in a cooling centrifuge at 4 °C. The plasma was withdrawn, and the histamine content was measured by the o-phthalaldehyde spectrofluorometric procedure as mentioned by Shore et al.. The fluorescent intensity was measured at 438 nm in a spectrofluorometer.

Structure (SMILES): CC(C)(C(=O)O)c1ccc(C(O)CCCN2CCC(C(O)(c3ccccc3)c3ccccc3)CC2)cc1 (centres unmarked) [FEX powder, Fexofenadine HCl]
- Histamine Concentration (mice plasma, n = 8, oral 1 h before i.p. compound 48/80 (8 mg/kg), ± SD): 236.4 ± 12.9 ng/mL
- Inhibition of histamine release (plasma histamine level) (mice, versus compound 48/80 positive control group): 7.9%
